These are literature values, as cited in patent US20250115576A1, “THERAPEUTIC COMPOUNDS AND METHODS OF USE THEREOF” (Genentech, Inc., priority 2018, published 2025).

The structures appear in SMILES notation.

The conditions of the series: administered topically (Lidoderm patch); cited from earlier work.

Turning to `CCN(CC)CC(=O)Nc1c(C)cccc1C` [lidocaine], the plasma concentrations entry was “about 1 μM”.
